# Data as given in PubChem BioAssay AID540256 (National Center for Advancing Translational Sciences (NCATS), 2011).
# Hit rate of the full screen: of about 300,000 compounds, about 3,700 (1.2%) were called active. Inconclusive means that the source gave no clear call. Such entries were picked first, then a sample of the others. The call rests on the fitted dose curve; tested in HEK293 cells. A potency beside an inconclusive call is a rough fit, not a confirmed value.
# Assay: qHTS for Inhibitors of binding or entry into cells for Lassa Virus; further: nearly all actives have a fitted effect of over 50% in size
# Settings: Lassa virus pseudotype entry inhibition, cell reporter; activity change, negative = inhibition: at 37.9 µM (top of the series) unless noted
# On the % scale 0 is the no-effect control and ±100 the full control effect; potency means the concentration at half of the fitted maximal effect.
Compound,Potency,"activity change, negative = inhibition"
S=c1[nH]nc(-c2ccco2)n1/N=C/C=C/c1ccccc1,"inconclusive: 14.1 µM [inhibitor, single point]",
COC1CCN(C(=O)c2ccc3oc(C(C)C)nc3c2)CC1,,inactive: 6.02% [at 46.1 µM]
CCOc1ccccc1NC(=O)C(C)SCc1ccccc1 (stereo not given),"inconclusive: 20 µM [inhibitor, partial curve, poor fit]",
O=C(c1cccc(Cl)c1)N1CCCC(c2ccc(Cl)cc2)=N1,"inconclusive: 14.6 µM [inhibitor, partial curve]",
Cc1cc(C(=O)COC(=O)CC2Sc3ccccc3NC2=O)c(C)n1-c1ccc(Br)cc1 (stereo not given),"inconclusive: 0.231 µM [inhibitor, single point]",
CC(C)C(NS(=O)(=O)c1c(Cl)cccc1Cl)C(=O)OCC(=O)c1c[nH]c2ccccc12 (stereo not given),"inconclusive: 11.2 µM [inhibitor, partial curve]",
CCCCNC(=S)N/N=C/c1ccc(OCC(=O)Nc2c(C)cc(C)cc2C)c(OC)c1,"inconclusive: 6.31 µM [inhibitor, single point]",
Cc1ccsc1C(=O)C1CCCN(Cc2cccc(OCCO)c2)C1 (stereo not given),,inactive: 9.38% [at 46.1 µM]
Cc1nc(CSc2nc3[nH]ncc3c(=O)n2-c2ccccc2)cs1,,inactive: -22.4%
CCCn1cnc2cc(NC(=O)c3cc(OC)c(OC)c(OC)c3)ccc21,"inconclusive: 15.8 µM [activator, partial curve, poor fit]",
COCCNC(=S)N1CCC(c2nc(-c3ccc(N(C)C)cc3)no2)CC1,,inactive: -19.4%
CCC(C)c1ccc(NC(=S)NC2CCN(Cc3ccccc3)CC2)cc1 (stereo not given),"inconclusive: 22.4 µM [inhibitor, single point]",
C=CCOc1cccc(/C=N/NC(=O)C(OC)c2ccccc2)c1 (stereo not given),,inactive: -22.9% [at 46.1 µM]
Cc1cc(C(=O)CSc2nnc(Nc3ccccc3)s2)c(C)n1CC1CCCO1 (stereo not given),,inactive: -9.24%
c1ccc2c(c1)[nH]c1c(N3CCC4(CC3)OCCO4)ncnc12,"inconclusive: 25.1 µM [inhibitor, single point]",
C=C(C)Cn1c(N2CCN(c3ccc(OC)cc3)CC2)nc2c1c(=O)n(C)c(=O)n2C,"inconclusive: 2.24 µM [inhibitor, partial curve, poor fit]",
COc1ccc(N2CCN(C(=O)c3cnc(N4CCOCC4)c4ccccc34)CC2)cc1,"inconclusive: 22.4 µM [inhibitor, single point]",
CC(C)c1ccc(Nc2nc(CC(=O)O)cs2)cc1,"inconclusive: 1.26 µM [activator, partial curve, poor fit]",
N#Cc1ccccc1-n1c(N)c(C(=O)N2CCCC2)sc1=S,"inconclusive: 7.94 µM [inhibitor, partial curve, poor fit]",
C[C@@H](C(=O)N1CCN(Cc2ccc3c(c2)OCO3)CC1)n1nnc2ccccc2c1=O,,inactive: 3.63% [at 46.1 µM]
O=C(NC(=S)NCCC1=CCCCC1)c1cncc(Br)c1,"inconclusive: 18.4 µM [inhibitor, single point]",
CCOC(=O)c1cnc2ccc(OCC)cc2c1N1CCN(c2ccccc2)CC1,"inconclusive: 29.1 µM [inhibitor, single point]",

Compound,Potency,"activity change, negative = inhibition"
O=C(c1ccco1)N1CCN(S(=O)(=O)c2ccc3c(c2)CCN3C(=O)C2CC2)CC1,"inconclusive: 0.126 µM [inhibitor, full curve, poor fit]",
Cc1ccc(NCc2cc3cc4c(cc3n(CC(=O)Nc3ccc(C)cc3)c2=O)OCCO4)cc1,,inactive: 10.8% [at 46.1 µM]
Cc1ccc(-c2nnc3c4ccccc4c(-c4ccccc4)nn23)cc1,"inconclusive: 35.5 µM [activator, single point]",
CCC1(c2ccc(F)cc2)NC(=O)N(CC(=O)N2CCN(C(=O)c3cccs3)CC2)C1=O (stereo not given),"inconclusive: 7.08 µM [inhibitor, partial curve, poor fit]",
COCCCN(C(=S)NC(=O)c1ccc(C(C)(C)C)cc1)c1c(N)n(Cc2ccccc2)c(=O)[nH]c1=O,"inconclusive: 22.4 µM [inhibitor, single point]",
COc1ccc(C(C(=O)NC2CCCC2)N(C(=O)c2ccco2)c2ccc(OC)c(OC)c2)cc1 (stereo not given),"inconclusive: 3.98 µM [inhibitor, full curve]",
CCCCn1c(SCC(=O)c2ccccc2)nc2sc3c(c2c1=O)CCCC3,"inconclusive: 5.01 µM [inhibitor, single point]",
c1csc(C2=NNC(=NC3CCCCC3)SC2)c1,,inactive: -6.28%
COc1ccccc1OCc1nc2ccccc2n1Cc1ccccc1,,inactive: 5.17% [at 46.1 µM]
CSc1nc2ccc(S(=O)(=O)N(C)C)cc2s1,,inactive: 1.95%
Cc1ccc(S(=O)(=O)Nc2ccc(-c3ccc(N4CCCCCC4)nn3)cc2)c(C)c1,"inconclusive: 4.47 µM [inhibitor, partial curve]",
CC(C)(C)c1ccc(S(=O)(=O)NCC(=O)N2CCN(C(=O)c3ccco3)CC2)cc1,"inconclusive: 5.17 µM [inhibitor, partial curve, poor fit]",
Cn1c(=O)c2[nH]c(NN=Cc3ccc(Br)cc3)nc2n(C)c1=O,"inconclusive: 35.5 µM [inhibitor, single point]",
COc1cc(F)ccc1Oc1cccc2c1S(=O)(=O)N(C1CC1)C[C@@H](COCc1ccccc1)O2,"inconclusive: 7.05 µM [inhibitor, partial curve]",
CCOc1ccc(S(=O)(=O)c2cc3cccc(OCC)c3oc2=O)cc1,,inactive: 10.5% [at 46.1 µM]
Cc1c(Cl)cccc1NC(=S)NCc1ccccc1Cl,"inconclusive: 5.8 µM [inhibitor, single point]",
CCOc1ccc(C(=O)CN2C(=O)NC3(CCCCCC3)C2=O)cc1,,inactive: 6.17%
O=C(c1ccco1)N1CCN(c2ncnc3c2[nH]c2ccc(Cl)cc23)CC1,"inconclusive: 29.1 µM [inhibitor, single point]",
CCOc1ccc(CNc2cc(C)nc3nc(-c4cccc(C)c4)nn23)cc1OC,,inactive: -18.9% [at 46.1 µM]
CCOc1cc(S(=O)(=O)NC2CCCC2)ccc1Cl,,inactive: -1.43%
CCCN1CCN(C(=O)Cn2cnc3sc(C)c(S(=O)(=O)N4CCC(C)CC4)c3c2=O)CC1,,inactive: 6.87% [at 46.1 µM]
Clc1nc(NCCc2ccccc2)c2cn[nH]c2n1,"inconclusive: 5.62 µM [inhibitor, single point]",

# Single values from above.
# `CCCCn1c(SCC(=O)c2ccccc2)nc2sc3c(c2c1=O)CCCC3` – Potency: inconclusive: 5.01 µM [inhibitor, single point]
# `CCOc1ccc(CNc2cc(C)nc3nc(-c4cccc(C)c4)nn23)cc1OC` – activity change, negative = inhibition: inactive: -18.9% [at 46.1 µM]
# `CCCN1CCN(C(=O)Cn2cnc3sc(C)c(S(=O)(=O)N4CCC(C)CC4)c3c2=O)CC1` – activity change, negative = inhibition: inactive: 6.87% [at 46.1 µM]

# The list goes on.

Compound,Potency,"activity change, negative = inhibition"
Cc1cc(C)c(-n2nnnc2SCC(=O)c2cccs2)c(C)c1,"inconclusive: 12.6 µM [inhibitor, partial curve, poor fit]",
Oc1cc(O)c2c(c1)OC(c1ccc(O)c(O)c1)C(O)C2 (stereo not given),"inconclusive: 31.5 µM [inhibitor, partial curve, poor fit]",
CC(C)COc1cc(=O)[nH]c(SCC(C)C)n1,"inconclusive: 35.5 µM [inhibitor, single point]",
CC1OC2(C)OC(=N)C1(C#N)C(C#N)(C#N)C2c1ccccc1 (stereo not given),"inconclusive: 11.2 µM [inhibitor, partial curve, poor fit]",
CCOC(=O)c1oc2ccccc2c1CN1CCN(C(=O)c2ccccc2)CC1,"inconclusive: 25.9 µM [inhibitor, single point]",
CCOC(=O)c1ccc(NC(=O)Nc2ccc(F)cc2)cc1,"inconclusive: 17.8 µM [inhibitor, partial curve, poor fit]",
CSc1nnc(NC(=O)c2cc(=O)c3cc(C)c(C)cc3o2)s1,"inconclusive: 31.6 µM [activator, single point]",
O=C(NCc1ccncc1)/C(=N/O)c1ccccc1,"inconclusive: 5.62 µM [activator, single point]",
Cc1ccc(N2C(=O)c3ccccc3C2C(=O)c2ccc(C)c(C)c2O)cc1 (stereo not given),"inconclusive: 0.891 µM [inhibitor, full curve, poor fit]",
COc1ccc(CNC(=O)C(CC(C)C)NS(=O)(=O)c2ccc3c(c2)oc(=O)n3C)cc1 (stereo not given),"inconclusive: 11.2 µM [inhibitor, single point]",
O=C(Nc1ccc(F)c(F)c1)c1cc(S(=O)(=O)N2CCN(c3ccccn3)CC2)ccc1F,"inconclusive: 2.59 µM [inhibitor, partial curve, poor fit]",
Oc1ccccc1C1=NCCNC(C(F)(F)C(F)F)=C1,"inconclusive: 7.94 µM [activator, partial curve, poor fit]",
Cc1ccc2nc(NC(=O)CCCc3nc4ccccc4s3)sc2c1,"inconclusive: 35.5 µM [activator, single point]",
COc1ccc(C2=CC(c3c(C)nn(-c4ccccc4)c3Cl)n3nnnc3N2)cc1OC (stereo not given),"inconclusive: 12.6 µM [inhibitor, partial curve, poor fit]",
Cc1ccc(C)c(S(=O)(=O)c2nnn3c2nc(NC2CCCC2)c2sccc23)c1,"inconclusive: 11.2 µM [inhibitor, partial curve, poor fit]",
CN1CCN(S(=O)(=O)c2ccccc2)CC1,"inconclusive: 35.5 µM [inhibitor, partial curve, poor fit]",
COc1ccc(NC(=O)c2c(C)noc2-c2snnc2C)cc1,"inconclusive: 4.47 µM [inhibitor, single point]",
COc1ccc(CCN2CC(C(=O)N(C)CC(=O)Nc3ccc(Cl)c(C(F)(F)F)c3)CC2=O)cc1OC (stereo not given),"inconclusive: 11.2 µM [inhibitor, partial curve, poor fit]",
CCCn1cc(CN2CCC(n3nccc3NC(=O)c3ccccc3)CC2)c(C)n1,,inactive: 12.4%
Cc1csc(=N)n1-c1ccc(Cl)cc1,"inconclusive: 13 µM [activator, partial curve, poor fit]",
COc1ccc(NC(=O)CSCc2ccccc2C)cc1,"inconclusive: 17.8 µM [activator, single point]",
